Results from US10457666B2, “Stable crystal form of tipiracil hydrochloride and crystallization method for the same” (TAIHO PHARMACEUTICAL CO., LTD., priority 2013, dated 2019).

Assay: Residual ethanol in crystals by 1H-NMR
Assay type: physicochemical
Settings: 1H-NMR (DMSO-d6, TMS); ICH reference value 5000 ppm; hydrochloride
Experimental: (1) First, 100 mL of 6 N hydrochloric acid and 220 mL of water were mixed, and 95.1 g of tipiracil obtained in accordance with the method described in WO 96/30346 was dissolved therein with heating. The solution was hot filtered at a temperature of around 60° C. and then 1280 mL of ethanol was added thereto. The mixture was maintained at a temperature of around 60° C. for 2 hours by heating and was cooled with ice. The resulting crystals were separated by filtration, and thus 89.3 g of anhydrous Crystal I of tipiracil hydrochloride was obtained (recovery rate: 82%). […] (2) Tipiracil hydrochloride obtained in accordance with the method described in WO 96/30346 was dissolved in water with heating. The solution was hot filtered at a temperature of around 60° C. and then ethanol and the seed crystal (Crystal I) obtained in the above (1) were added thereto. The mixture was maintained at a temperature of around 60° C. for 2 hours by heating. The resulting crystals were separated by filtration, and thus anhydrous Crystal I of tipiracil hydrochloride was obtained. […] Moreover, the results of TG/DTA show an endothermic peak at a temperature of 262.2° C.
(1) In 20 mL of 6 N hydrochloric acid and 230 mL of water, 22.0 g of tipiracil 1 obtained in accordance with the method described in WO 96/30346 was dissolved. The solution was filtered and then concentrated, and 100 mL, of ethanol was added thereto at room temperature. The resulting crystals were separated by filtration, and thus 19.7 g of Crystal III of tipiracil hydrochloride was obtained (recovery rate: 78%). […] This value exceeds the reference value (5000 ppm) for ethanol described in the Guideline for Residual Solvents in ICH guidelines. (2) Tipiracil obtained in accordance with the method described in WO 96/30346 was dissolved in ethanol and concentrated hydrochloric acid was added thereto. The mixture was stirred at a temperature of 64° C. for 1 hour and was cooled to a temperature of 30° C. The resulting crystals were separated by filtration and washed with methanol, and thus Crystal III of tipiracil hydrochloride was obtained. […]

| SMILES | amount of residual ethanol contained in the crystals |
| --- | --- |
| Cl.N=C1CCCN1Cc1[nH]c(=O)[nH]c(=O)c1Cl [Crystal I, 5-chloro-6-(2-iminopyrrolidin-1-yl)methyl-2,4(1H,3H)-pyrimidinedione hydrochloride] | < 5000 ppm |
| Cl.N=C1CCCN1Cc1[nH]c(=O)[nH]c(=O)c1Cl [Crystal III, 5-chloro-6-(2-iminopyrrolidin-1-yl)methyl-2,4(1H,3H)-pyrimidinedione hydrochloride] | 16000 ppm |
| Cl.N=C1CCCN1Cc1[nH]c(=O)[nH]c(=O)c1Cl [Crystal II, 5-chloro-6-(2-iminopyrrolidin-1-yl)methyl-2,4(1H,3H)-pyrimidinedione hydrochloride] | < 5000 ppm |
